{"source": "PubChem BioAssay AID540256", "about": "(National Center for Advancing Translational Sciences (NCATS), 2011)", "note": "Among all 300,000 compounds or so, about 3,700 (1.2%) were called active. Inconclusive results, whose numbers are uncertain, are shown with a selection of clear calls. The call rests on the fitted dose curve; tested in HEK293 cells. Where the call is inconclusive, the potency comes from a doubtful curve fit. On the % scale 0 is the no-effect control and ±100 the full control effect; potency means the concentration at half of the fitted maximal effect.", "data": [{"assay": "qHTS for Inhibitors of binding or entry into cells for Lassa Virus; further: nearly all actives have a fitted effect of over 50% in size", "settings": "Lassa virus pseudotype entry inhibition, cell reporter; activity change, negative = inhibition: at 37.9 µM (top of the series) unless noted", "values": [{"smiles": "CCN1CCN(C(=O)COc2ccc(S(=O)(=O)Nc3ccc(Cl)cc3)cc2)CC1", "Potency": "inconclusive: 35.5 µM [inhibitor, single point]"}, {"smiles": "CCS(=O)(=O)c1ccc(-c2csc(-c3ccccc3)n2)c(Cl)c1Cl", "Potency": "inconclusive: 11.2 µM [inhibitor, partial curve]"}, {"smiles": "CC(=O)N1CCN(c2ccc(NCc3cccc4ccccc34)cc2)CC1", "Potency": "inconclusive: 35.5 µM [inhibitor, single point]"}, {"smiles": "CCc1nc(SCC(=O)Nc2ccc(F)cc2F)c2c(=O)n(C)c(=O)n(C)c2n1", "Potency": "inconclusive: 1.26 µM [inhibitor, single point]"}, {"smiles": "C=CCn1c(O)c(C=Nc2ccccc2)sc1=S", "Potency": "inconclusive: 31.6 µM [inhibitor, partial curve, poor fit]"}, {"smiles": "Cc1cc(NS(=O)(=O)c2ccc(NC(=O)COc3c(C)cc(Br)cc3C)cc2)no1", "Potency": "inconclusive: 11.2 µM [inhibitor, single point]"}, {"smiles": "CC(=O)Nc1ccc(S(=O)(=O)N2CCN(Cc3cccs3)CC2)cc1", "Potency": "inconclusive: 3.16 µM [inhibitor, full curve]"}, {"smiles": "CCCCCOC(=O)CC(C(=O)OCCCCC)N1CCCCC1", "note": "(configuration not stated)", "Potency": "inconclusive: 35.5 µM [inhibitor, single point]"}, {"smiles": "Cc1cc(-c2nn(-c3ccccc3F)cc2CN2CCN(c3ccccn3)CC2)c(C)s1", "Potency": "inconclusive: 17.8 µM [inhibitor, partial curve, poor fit]"}, {"smiles": "O=[N+]([O-])c1ccc(O)c2ncccc12", "Potency": "inconclusive: 25.9 µM [inhibitor, partial curve, poor fit]"}, {"smiles": "O=C(Cc1nn[nH]n1)NCc1ccccc1Cl", "activity change, negative = inhibition": "inactive: 0.285%"}, {"smiles": "NS(=O)(=O)c1ccc(NC(=S)NC(=O)C2CCCC2)cc1", "Potency": "inconclusive: 7.08 µM [activator, full curve, poor fit]"}, {"smiles": "Cc1ccc(C(=O)N2CCc3ccccc32)o1", "Potency": "inconclusive: 8.91 µM [inhibitor, partial curve, poor fit]"}, {"smiles": "Cc1ccc(NC(=S)N(CCCN2CCCC2)Cc2cccn2Cc2ccc(Cl)cc2)cc1", "Potency": "inconclusive: 35.5 µM [inhibitor, single point]"}, {"smiles": "Cc1ccc(/C=N/NC(=O)C2(C)CC2(Br)Br)cc1", "note": "(configuration not stated)", "activity change, negative = inhibition": "inactive: 10.6%"}, {"smiles": "CCn1cc2nc(SCc3cccc(OC)c3)n(Cc3ccc(Cl)cc3)c(=O)c2n1", "Potency": "inconclusive: 17.8 µM [inhibitor, single point]"}, {"smiles": "N#C/C(=C\\c1cccs1)C(=O)Nc1nccs1", "activity change, negative = inhibition": "inactive: 20.6%"}, {"smiles": "O=C(CN1CCCC1)Nc1ccc(NC(=O)Nc2ccccc2)cc1", "Potency": "inconclusive: 3.55 µM [activator, full curve]"}, {"smiles": "Cc1cc(C)nc(SCC(=O)Nc2ccc(N3CCOCC3)c(Cl)c2)n1", "Potency": "inconclusive: 22.4 µM [inhibitor, single point]"}, {"smiles": "CC1COc2ccccc2N1S(=O)(=O)c1ccccc1", "note": "(configuration not stated)", "Potency": "inconclusive: 11.2 µM [inhibitor, partial curve]"}, {"smiles": "CCN(CC)C(=O)c1sc(NC(=O)c2ccc3c(c2)OCO3)c(C(N)=O)c1C", "Potency": "inconclusive: 35.5 µM [activator, single point]"}, {"smiles": "Cc1ccc(S(=O)(=O)N2CCCc3cc(NC(=O)c4ccc(F)c(F)c4)ccc32)cc1", "activity change, negative = inhibition": "inactive: -2.23% [at 46.1 µM]"}, {"smiles": "CCOC(=O)c1ccc(NS(=O)(=O)c2cn(C)c(C)n2)cc1", "activity change, negative = inhibition": "inactive: -14.8% [at 46.1 µM]"}, {"smiles": "O=C(NC1CCCC1)C(=O)c1c[nH]c2ccccc12", "Potency": "inconclusive: 7.94 µM [activator, partial curve, poor fit]"}, {"smiles": "COc1ccc(C(=O)Nc2cccc([N+](=O)[O-])c2)cc1Br", "Potency": "inconclusive: 11.2 µM [inhibitor, single point]"}, {"smiles": "COCC(=O)N(Cc1ccccc1)c1ccccn1", "activity change, negative = inhibition": "inactive: 13.4%"}, {"smiles": "O=C(NNC(=O)C1C2C=CC(C2)C1C(=O)O)c1ccccc1O", "note": "(configuration not stated)", "activity change, negative = inhibition": "inactive: 10.2% [at 46.1 µM]"}, {"smiles": "N#Cc1nc(COc2ccccc2Cl)oc1NCc1cccnc1", "activity change, negative = inhibition": "inactive: -0.0422%"}, {"smiles": "O=C(CSc1nnc(-c2ccncc2)o1)Nc1cc(F)ccc1F", "Potency": "inconclusive: 0.0891 µM [activator, full curve, poor fit]"}, {"smiles": "COC(=O)c1ccc2nc(NC(=O)CCS(=O)(=O)c3ccccc3)sc2c1", "activity change, negative = inhibition": "inactive: -13.4% [at 46.1 µM]"}, {"smiles": "O=C(Nc1ccc2c(c1)CCC2)c1cnc(Cl)c(Cl)c1", "Potency": "inconclusive: 6.31 µM [activator, single point]"}, {"smiles": "O=C(N/N=C/C(Br)=C/c1ccccc1)c1n[nH]c2c1CCC2", "Potency": "inconclusive: 3.26 µM [inhibitor, single point]"}, {"smiles": "CC(=O)N1CCCc2cc(S(=O)(=O)N3CCCC(C(=O)NCc4ccccc4)C3)ccc21", "note": "(configuration not stated)", "Potency": "inconclusive: 1 µM [inhibitor, full curve]"}, {"smiles": "CC(=O)N1CCN(S(=O)(=O)c2cccc(C(=O)Nc3ccc4c(c3)CCC4)c2)CC1", "Potency": "inconclusive: 0.092 µM [activator, partial curve, poor fit]"}, {"smiles": "COc1cccc(NC(=O)c2nc(S(C)(=O)=O)ncc2Cl)c1", "Potency": "inconclusive: 35.5 µM [inhibitor, single point]"}, {"smiles": "COc1ccc(N(CC(=O)NCCSc2ccccn2)S(=O)(=O)c2ccccc2)cc1Cl", "Potency": "inconclusive: 35.5 µM [inhibitor, single point]"}, {"smiles": "O=C(/C=C\\c1ccccc1OC(=O)c1ccccc1F)c1cc2ccccc2o1", "Potency": "inconclusive: 35.5 µM [inhibitor, single point]"}, {"smiles": "COc1ccc(C)cc1NS(=O)(=O)c1ccc(NC(=O)CN(c2cc([N+](=O)[O-])ccc2C)S(C)(=O)=O)cc1", "Potency": "inconclusive: 10.3 µM [inhibitor, partial curve, poor fit]"}, {"smiles": "Cc1cc(-c2ccccc2)nc(SCC(=O)c2cccc([N+](=O)[O-])c2)n1", "Potency": "inconclusive: 1.64 µM [inhibitor, partial curve, poor fit]"}, {"smiles": "Nc1c(C(=O)NCc2ccc3c(c2)OCO3)nnn1CC(=O)Nc1ccc(Br)cc1", "Potency": "inconclusive: 7.08 µM [inhibitor, partial curve, poor fit]"}, {"smiles": "COc1ccc2c(c1)CC/C(=C/c1ccco1)C2=O", "Potency": "inconclusive: 29.1 µM [inhibitor, single point]"}, {"smiles": "COc1ccc(S(=O)(=O)NC2CCCCC2)cc1-n1cnnn1", "activity change, negative = inhibition": "inactive: -6.04%"}]}]}
